{"source": "PubChem BioAssay AID1159600 – NIAID – 2016", "aim": "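Which TLR pathway genes support TNF promoter activation by R848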 (primary screen)", "cell system": "human THP-1 TNF reporter clone B5, made macrophage-like with PMA", "reagents": "single siRNA against human genes", "duration": "4 h ligand stimulation, assayed 48 to 72 h after siRNA transfection", "conditions": "R848 (TLR7/8 agonist) for 4 hours before lysis; dose not given", "detection": "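TNF promoter firefly to renilla luciferase ratio after 4 h R848, scaled per plate by median and MAD, robust z-score against negative controls, mean of replicates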", "reading the numbers": "TNF reporter z-score: higher = stronger TNF promoter reporter signal after R848", "active means": "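siRNAs graded by distance of mean z-score from zero in steps of 1, 1.5, 2 and 2.5; active calls sit at roughly -1.5 or below, or 1.5 or above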", "calls": "active = strong change in TNF reporter (up or down); inactive = little change", "note": "Shown is one part, drawn at random, of 756 deposited reagents. Of all reagents, 134 (18%) are marked active. 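Active includes both reduced and increased reporter signal, though most active siRNAs reduce it; R848 dose unknown.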 The numbers tell different reagents against one gene apart. Reagent sequences are not shown. The record does not give: the amount of reagent."}
{"Gene": "NFKB1", "siRNA no.": 1, "TNF reporter z-score": -0.931, "activity call": "inactive"}
{"Gene": "NFKB1", "siRNA no.": 2, "TNF reporter z-score": 1.37, "activity call": "inactive"}
{"Gene": "NFKB1", "siRNA no.": 3, "TNF reporter z-score": 0.297, "activity call": "inactive"}
{"Gene": "NFKB1", "siRNA no.": 4, "TNF reporter z-score": -1.24, "activity call": "inactive"}
{"Gene": "NFKB1", "siRNA no.": 5, "TNF reporter z-score": 1.43, "activity call": "inactive"}
{"Gene": "NFKB1", "siRNA no.": 6, "TNF reporter z-score": 0.102, "activity call": "inactive"}
{"Gene": "EP300", "siRNA no.": 1, "TNF reporter z-score": -2.56, "activity call": "active"}
{"Gene": "EP300", "siRNA no.": 2, "TNF reporter z-score": -1.88, "activity call": "active"}
{"Gene": "EP300", "siRNA no.": 3, "TNF reporter z-score": -0.0915, "activity call": "inactive"}
{"Gene": "EP300", "siRNA no.": 4, "TNF reporter z-score": -1.13, "activity call": "inactive"}
{"Gene": "EP300", "siRNA no.": 5, "TNF reporter z-score": 0.595, "activity call": "inactive"}
{"Gene": "EP300", "siRNA no.": 6, "TNF reporter z-score": 0.498, "activity call": "inactive"}
{"Gene": "TRAF6", "siRNA no.": 1, "TNF reporter z-score": -3.02, "activity call": "active"}
{"Gene": "TRAF6", "siRNA no.": 2, "TNF reporter z-score": -3.45, "activity call": "active"}
{"Gene": "TRAF6", "siRNA no.": 3, "TNF reporter z-score": -2.06, "activity call": "active"}
{"Gene": "TRAF6", "siRNA no.": 4, "TNF reporter z-score": -1.92, "activity call": "active"}
{"Gene": "TRAF6", "siRNA no.": 5, "TNF reporter z-score": -0.729, "activity call": "inactive"}
{"Gene": "TRAF6", "siRNA no.": 6, "TNF reporter z-score": -1.58, "activity call": "active"}
{"Gene": "IL12A", "siRNA no.": 1, "TNF reporter z-score": -0.0847, "activity call": "inactive"}
{"Gene": "IL12A", "siRNA no.": 2, "TNF reporter z-score": -0.17, "activity call": "inactive"}
{"Gene": "IL12A", "siRNA no.": 3, "TNF reporter z-score": -2.98, "activity call": "active"}
{"Gene": "IL12A", "siRNA no.": 4, "TNF reporter z-score": -0.477, "activity call": "inactive"}
{"Gene": "IL12A", "siRNA no.": 5, "TNF reporter z-score": -1.06, "activity call": "inactive"}
{"Gene": "IL12A", "siRNA no.": 6, "TNF reporter z-score": -0.51, "activity call": "inactive"}
{"Gene": "IKBKB", "siRNA no.": 1, "TNF reporter z-score": -0.693, "activity call": "inactive"}
{"Gene": "IKBKB", "siRNA no.": 2, "TNF reporter z-score": 1.07, "activity call": "inactive"}
{"Gene": "IKBKB", "siRNA no.": 3, "TNF reporter z-score": -0.841, "activity call": "inactive"}
{"Gene": "IKBKB", "siRNA no.": 4, "TNF reporter z-score": -0.626, "activity call": "inactive"}
{"Gene": "IKBKB", "siRNA no.": 5, "TNF reporter z-score": -0.188, "activity call": "inactive"}
{"Gene": "IKBKB", "siRNA no.": 6, "TNF reporter z-score": -0.653, "activity call": "inactive"}
{"Gene": "RELB", "siRNA no.": 1, "TNF reporter z-score": -0.154, "activity call": "inactive"}
{"Gene": "RELB", "siRNA no.": 2, "TNF reporter z-score": -0.322, "activity call": "inactive"}
{"Gene": "RELB", "siRNA no.": 3, "TNF reporter z-score": -0.311, "activity call": "inactive"}
{"Gene": "RELB", "siRNA no.": 4, "TNF reporter z-score": -1.21, "activity call": "inactive"}
{"Gene": "RELB", "siRNA no.": 5, "TNF reporter z-score": -0.7, "activity call": "inactive"}
{"Gene": "RELB", "siRNA no.": 6, "TNF reporter z-score": 0.449, "activity call": "inactive"}
{"Gene": "TANK", "siRNA no.": 1, "TNF reporter z-score": 0.795, "activity call": "inactive"}
{"Gene": "TANK", "siRNA no.": 2, "TNF reporter z-score": -0.117, "activity call": "inactive"}
{"Gene": "TANK", "siRNA no.": 3, "TNF reporter z-score": 0.063, "activity call": "inactive"}
{"Gene": "TANK", "siRNA no.": 4, "TNF reporter z-score": 0.0594, "activity call": "inactive"}
{"Gene": "TANK", "siRNA no.": 5, "TNF reporter z-score": -1.39, "activity call": "inactive"}
{"Gene": "TANK", "siRNA no.": 6, "TNF reporter z-score": 1.03, "activity call": "inactive"}
{"Gene": "TICAM2", "siRNA no.": 1, "TNF reporter z-score": -0.0164, "activity call": "inactive"}
{"Gene": "TICAM2", "siRNA no.": 2, "TNF reporter z-score": -0.734, "activity call": "inactive"}
{"Gene": "TICAM2", "siRNA no.": 3, "TNF reporter z-score": 1.21, "activity call": "inactive"}
{"Gene": "TICAM2", "siRNA no.": 4, "TNF reporter z-score": 1.26, "activity call": "inactive"}
{"Gene": "TICAM2", "siRNA no.": 5, "TNF reporter z-score": -1.05, "activity call": "inactive"}
{"Gene": "TICAM2", "siRNA no.": 6, "TNF reporter z-score": -0.79, "activity call": "inactive"}

A few values from above.
Entry of NFKB1 #3 in “TNF reporter z-score”: 0.297
For “TNF reporter z-score”, IKBKB #6 reads -0.653
IL12A #3, TNF reporter z-score → -2.98
IL12A #5, TNF reporter z-score → -1.06
For “TNF reporter z-score”, RELB #2 is entered as -0.322
Under “activity call”, EP300 #1 shows active
